No signal at the amounts used counts as a negative. At least one verdict was read from the data and is not stated in words by the source. Where a protein sequence is shown, tags need not be part of it.

We go through one sequence from article PMC12728634.

The target in the data set is T1, sclerostin (UniProt Q9BQB4).
T1 sequence (looked up, limits assumed): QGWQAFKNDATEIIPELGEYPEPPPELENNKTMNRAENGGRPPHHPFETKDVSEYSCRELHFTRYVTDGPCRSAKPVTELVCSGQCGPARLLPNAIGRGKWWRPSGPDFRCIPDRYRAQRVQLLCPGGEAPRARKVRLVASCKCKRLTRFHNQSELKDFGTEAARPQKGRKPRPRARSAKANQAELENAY
The data set is described as follows: BLI. The conditions noted are these: tri-GalNAc via amino-C6 linker (terminus not stated in material); 2'-OMe (printed OMe) at nt 1-4 and 37-40; 3' idT (not in string); BLI in 1x PBS + 0.02% Tween20, pH 7.4, 500 rpm; 1:1 fit; regeneration 5 M NaCl; temperature not given; commercial protein; single-stranded DNA.

“ATGCAAGCACATTGTGATCGCTTCAAATGTCTTCCGUCCG [GalNAc-Scramble]”: the binding result is reported as “no binding”.
